According to publication PMC7296666:
These are yes or no findings as the source states them, for the method shown. Binding seen in cells or lysates may run through a third protein. Some entries that bind do so weakly or less than the wild type. Sequences can lack the tags named with a protein.

Protein sequences, listed by entry. Tags and fused reporters are not part of them. Residues count along the entry.
UniProt P08887, residues 20-468: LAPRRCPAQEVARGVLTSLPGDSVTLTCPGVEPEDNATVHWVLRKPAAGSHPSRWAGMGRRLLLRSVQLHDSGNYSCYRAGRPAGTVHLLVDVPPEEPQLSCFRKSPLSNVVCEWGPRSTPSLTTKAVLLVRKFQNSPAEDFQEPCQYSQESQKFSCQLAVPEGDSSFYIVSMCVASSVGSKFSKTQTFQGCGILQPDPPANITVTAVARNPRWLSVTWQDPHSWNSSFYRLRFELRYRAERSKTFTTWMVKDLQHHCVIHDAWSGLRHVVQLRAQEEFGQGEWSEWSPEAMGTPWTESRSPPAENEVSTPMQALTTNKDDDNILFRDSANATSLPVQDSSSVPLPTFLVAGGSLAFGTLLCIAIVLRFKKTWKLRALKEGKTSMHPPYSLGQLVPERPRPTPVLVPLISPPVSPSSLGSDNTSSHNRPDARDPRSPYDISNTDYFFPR
UniProt P40189, residues 23-918: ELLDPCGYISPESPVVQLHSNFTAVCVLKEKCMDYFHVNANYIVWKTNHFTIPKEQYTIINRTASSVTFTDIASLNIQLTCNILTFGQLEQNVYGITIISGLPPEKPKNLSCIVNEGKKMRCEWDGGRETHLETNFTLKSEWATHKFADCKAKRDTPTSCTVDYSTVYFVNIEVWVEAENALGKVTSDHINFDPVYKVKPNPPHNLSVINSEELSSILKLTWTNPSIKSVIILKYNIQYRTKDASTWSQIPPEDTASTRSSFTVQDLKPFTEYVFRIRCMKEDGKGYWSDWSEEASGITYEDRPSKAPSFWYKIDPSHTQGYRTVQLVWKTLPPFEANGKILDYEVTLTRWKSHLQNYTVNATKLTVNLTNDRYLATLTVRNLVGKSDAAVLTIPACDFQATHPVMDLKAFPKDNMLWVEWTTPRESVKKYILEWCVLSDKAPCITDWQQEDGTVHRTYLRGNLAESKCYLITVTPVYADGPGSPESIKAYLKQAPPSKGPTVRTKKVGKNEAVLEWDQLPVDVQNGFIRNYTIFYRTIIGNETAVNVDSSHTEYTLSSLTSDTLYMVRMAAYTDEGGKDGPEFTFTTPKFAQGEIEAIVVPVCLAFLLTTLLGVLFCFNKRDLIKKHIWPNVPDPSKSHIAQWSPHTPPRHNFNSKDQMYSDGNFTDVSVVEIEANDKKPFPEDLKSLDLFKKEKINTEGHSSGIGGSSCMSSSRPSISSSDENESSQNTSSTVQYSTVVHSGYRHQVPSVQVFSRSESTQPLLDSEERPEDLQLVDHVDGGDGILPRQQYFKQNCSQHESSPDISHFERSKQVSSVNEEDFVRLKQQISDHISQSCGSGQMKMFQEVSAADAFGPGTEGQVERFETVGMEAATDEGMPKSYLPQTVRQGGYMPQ

Key:
GST-FBXO2 = target: T1, GST-FBXO2 (UniProt Q9UK22); experiment: pull-down; GST or GST-FBXO2 on glutathione-Sepharose beads; reaction buffer 200 mM NaCl, 50 mM HEPES pH 7.5, 1 mM MgCl2, 0.2% Triton X-100, 0.2 mg/ml BSA; 1 mg Flag-IL6ST or Flag-IL6Ra-transfected cell lysate added, 1 h; immunoblot; only the target purified
T1 sequence: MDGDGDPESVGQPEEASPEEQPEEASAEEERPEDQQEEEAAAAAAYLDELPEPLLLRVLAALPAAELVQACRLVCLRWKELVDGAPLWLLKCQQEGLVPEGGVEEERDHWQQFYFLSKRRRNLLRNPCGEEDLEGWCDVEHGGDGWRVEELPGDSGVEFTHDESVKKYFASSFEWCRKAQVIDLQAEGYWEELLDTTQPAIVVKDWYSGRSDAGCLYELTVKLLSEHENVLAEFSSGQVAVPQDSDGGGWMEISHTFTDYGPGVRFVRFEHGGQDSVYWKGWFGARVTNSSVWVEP

Flag-FBXO2 WT = target: T2, Flag-FBXO2 WT (UniProt Q9UK22); experiment: co-IP; 293T cells transfected with EV, Flag-FBXO2 WT or MUT for 36 h; lysis buffer 150 mM Tris-HCl pH 7.5, 150 mM NaCl, 0.5% Nonidet P40; IP with Flag M2 beads overnight at 4 °C; blots for IL6Ra and IL6ST
T2 sequence: T1 sequence

Flag-IL6Ra (from UniProt P08887 20-468) (receptor)
binding (GST-FBXO2): no binding

Flag-IL6ST (from UniProt P40189 23-918) (receptor)
binding (GST-FBXO2): binds

IL6ST (endogenous, 293T) (from UniProt P40189 23-918) (receptor)
binding (Flag-FBXO2 WT): binds
